34 targets from the supplement of paper PMC10849652 can be followed below.

Chains of the proteins cited; added tags and fusions are not shown. Lines headed by an entry give the natural chain unless they say otherwise; changes in a name come on top.
UniProt O15371, whole entry, looked up: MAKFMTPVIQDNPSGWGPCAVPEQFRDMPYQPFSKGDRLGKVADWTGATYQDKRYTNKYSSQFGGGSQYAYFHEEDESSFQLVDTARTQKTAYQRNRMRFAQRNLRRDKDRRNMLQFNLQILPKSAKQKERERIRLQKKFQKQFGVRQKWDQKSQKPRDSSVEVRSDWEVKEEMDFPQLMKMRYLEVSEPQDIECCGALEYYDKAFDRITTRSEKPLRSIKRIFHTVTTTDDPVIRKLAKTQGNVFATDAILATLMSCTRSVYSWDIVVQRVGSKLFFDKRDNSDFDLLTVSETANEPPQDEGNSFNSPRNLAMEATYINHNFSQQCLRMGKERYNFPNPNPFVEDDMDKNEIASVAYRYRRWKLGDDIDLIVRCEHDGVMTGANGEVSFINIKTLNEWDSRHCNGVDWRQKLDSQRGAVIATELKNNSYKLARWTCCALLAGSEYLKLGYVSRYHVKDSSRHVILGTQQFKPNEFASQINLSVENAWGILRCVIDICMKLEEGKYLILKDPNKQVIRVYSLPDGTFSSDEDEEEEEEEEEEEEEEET
UniProt Q14249: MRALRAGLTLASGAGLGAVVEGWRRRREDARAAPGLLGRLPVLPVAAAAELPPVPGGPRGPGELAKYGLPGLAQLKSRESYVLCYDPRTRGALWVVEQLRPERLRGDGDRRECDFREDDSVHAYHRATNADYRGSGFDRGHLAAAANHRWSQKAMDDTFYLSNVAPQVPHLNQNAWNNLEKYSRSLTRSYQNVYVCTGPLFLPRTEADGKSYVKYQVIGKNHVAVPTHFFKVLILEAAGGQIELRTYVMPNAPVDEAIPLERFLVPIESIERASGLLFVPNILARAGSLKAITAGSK
UniProt O75821, whole entry, looked up: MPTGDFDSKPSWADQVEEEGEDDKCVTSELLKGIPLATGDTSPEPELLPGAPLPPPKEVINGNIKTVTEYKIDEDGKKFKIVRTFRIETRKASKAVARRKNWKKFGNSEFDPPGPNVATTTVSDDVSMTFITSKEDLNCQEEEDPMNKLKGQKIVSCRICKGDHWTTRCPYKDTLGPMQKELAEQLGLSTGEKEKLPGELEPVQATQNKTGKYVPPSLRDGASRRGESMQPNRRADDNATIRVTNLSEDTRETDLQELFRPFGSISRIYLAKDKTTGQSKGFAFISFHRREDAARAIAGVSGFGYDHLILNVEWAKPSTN
UniProt Q0PNE2: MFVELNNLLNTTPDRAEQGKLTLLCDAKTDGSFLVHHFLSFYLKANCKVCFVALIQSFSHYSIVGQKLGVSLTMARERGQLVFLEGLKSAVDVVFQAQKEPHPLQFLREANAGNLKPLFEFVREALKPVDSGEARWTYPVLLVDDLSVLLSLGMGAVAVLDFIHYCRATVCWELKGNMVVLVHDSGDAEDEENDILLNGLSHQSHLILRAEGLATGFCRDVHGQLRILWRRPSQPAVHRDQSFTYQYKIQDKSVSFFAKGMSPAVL
UniProt P09104, whole entry, looked up: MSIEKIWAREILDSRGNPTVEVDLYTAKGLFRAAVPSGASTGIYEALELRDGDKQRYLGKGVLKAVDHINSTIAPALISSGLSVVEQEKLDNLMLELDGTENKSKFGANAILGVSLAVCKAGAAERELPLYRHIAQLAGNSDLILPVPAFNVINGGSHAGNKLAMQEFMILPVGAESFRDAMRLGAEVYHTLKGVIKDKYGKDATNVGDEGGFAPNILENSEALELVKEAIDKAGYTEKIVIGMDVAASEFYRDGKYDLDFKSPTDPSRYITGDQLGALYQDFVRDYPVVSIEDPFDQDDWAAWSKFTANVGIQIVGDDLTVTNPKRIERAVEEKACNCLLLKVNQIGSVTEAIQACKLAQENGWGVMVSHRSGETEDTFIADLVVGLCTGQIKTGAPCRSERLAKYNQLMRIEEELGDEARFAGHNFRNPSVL
UniProt P60228, whole entry, looked up: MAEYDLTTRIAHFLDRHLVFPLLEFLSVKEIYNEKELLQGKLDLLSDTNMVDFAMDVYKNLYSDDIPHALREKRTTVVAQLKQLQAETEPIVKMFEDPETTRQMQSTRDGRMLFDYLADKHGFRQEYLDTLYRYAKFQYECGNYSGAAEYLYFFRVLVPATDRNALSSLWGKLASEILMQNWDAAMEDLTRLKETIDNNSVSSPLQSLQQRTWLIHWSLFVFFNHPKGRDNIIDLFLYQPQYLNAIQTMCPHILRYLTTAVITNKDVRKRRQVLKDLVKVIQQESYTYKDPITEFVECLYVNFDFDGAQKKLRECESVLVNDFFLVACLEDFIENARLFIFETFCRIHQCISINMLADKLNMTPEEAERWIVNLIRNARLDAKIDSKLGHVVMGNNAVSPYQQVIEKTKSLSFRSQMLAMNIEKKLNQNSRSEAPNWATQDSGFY
UniProt Q08426: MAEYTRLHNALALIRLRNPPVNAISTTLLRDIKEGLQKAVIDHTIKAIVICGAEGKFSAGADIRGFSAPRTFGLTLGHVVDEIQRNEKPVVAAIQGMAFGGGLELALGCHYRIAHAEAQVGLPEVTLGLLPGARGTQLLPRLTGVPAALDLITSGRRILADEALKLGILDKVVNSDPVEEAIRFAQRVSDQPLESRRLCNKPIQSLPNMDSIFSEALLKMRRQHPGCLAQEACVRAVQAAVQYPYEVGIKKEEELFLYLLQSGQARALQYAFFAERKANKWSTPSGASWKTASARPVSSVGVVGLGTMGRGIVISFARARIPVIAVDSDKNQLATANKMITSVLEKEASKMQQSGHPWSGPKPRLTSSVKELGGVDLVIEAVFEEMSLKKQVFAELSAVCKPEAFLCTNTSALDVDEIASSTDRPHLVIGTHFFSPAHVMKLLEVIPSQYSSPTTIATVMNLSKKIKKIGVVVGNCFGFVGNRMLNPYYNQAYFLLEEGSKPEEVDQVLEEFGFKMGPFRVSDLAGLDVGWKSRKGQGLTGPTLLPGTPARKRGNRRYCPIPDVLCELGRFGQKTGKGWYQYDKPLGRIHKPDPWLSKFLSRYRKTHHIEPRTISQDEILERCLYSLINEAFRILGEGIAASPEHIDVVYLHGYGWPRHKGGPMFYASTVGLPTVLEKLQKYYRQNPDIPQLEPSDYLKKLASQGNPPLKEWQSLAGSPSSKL
UniProt Q09472, whole entry, looked up: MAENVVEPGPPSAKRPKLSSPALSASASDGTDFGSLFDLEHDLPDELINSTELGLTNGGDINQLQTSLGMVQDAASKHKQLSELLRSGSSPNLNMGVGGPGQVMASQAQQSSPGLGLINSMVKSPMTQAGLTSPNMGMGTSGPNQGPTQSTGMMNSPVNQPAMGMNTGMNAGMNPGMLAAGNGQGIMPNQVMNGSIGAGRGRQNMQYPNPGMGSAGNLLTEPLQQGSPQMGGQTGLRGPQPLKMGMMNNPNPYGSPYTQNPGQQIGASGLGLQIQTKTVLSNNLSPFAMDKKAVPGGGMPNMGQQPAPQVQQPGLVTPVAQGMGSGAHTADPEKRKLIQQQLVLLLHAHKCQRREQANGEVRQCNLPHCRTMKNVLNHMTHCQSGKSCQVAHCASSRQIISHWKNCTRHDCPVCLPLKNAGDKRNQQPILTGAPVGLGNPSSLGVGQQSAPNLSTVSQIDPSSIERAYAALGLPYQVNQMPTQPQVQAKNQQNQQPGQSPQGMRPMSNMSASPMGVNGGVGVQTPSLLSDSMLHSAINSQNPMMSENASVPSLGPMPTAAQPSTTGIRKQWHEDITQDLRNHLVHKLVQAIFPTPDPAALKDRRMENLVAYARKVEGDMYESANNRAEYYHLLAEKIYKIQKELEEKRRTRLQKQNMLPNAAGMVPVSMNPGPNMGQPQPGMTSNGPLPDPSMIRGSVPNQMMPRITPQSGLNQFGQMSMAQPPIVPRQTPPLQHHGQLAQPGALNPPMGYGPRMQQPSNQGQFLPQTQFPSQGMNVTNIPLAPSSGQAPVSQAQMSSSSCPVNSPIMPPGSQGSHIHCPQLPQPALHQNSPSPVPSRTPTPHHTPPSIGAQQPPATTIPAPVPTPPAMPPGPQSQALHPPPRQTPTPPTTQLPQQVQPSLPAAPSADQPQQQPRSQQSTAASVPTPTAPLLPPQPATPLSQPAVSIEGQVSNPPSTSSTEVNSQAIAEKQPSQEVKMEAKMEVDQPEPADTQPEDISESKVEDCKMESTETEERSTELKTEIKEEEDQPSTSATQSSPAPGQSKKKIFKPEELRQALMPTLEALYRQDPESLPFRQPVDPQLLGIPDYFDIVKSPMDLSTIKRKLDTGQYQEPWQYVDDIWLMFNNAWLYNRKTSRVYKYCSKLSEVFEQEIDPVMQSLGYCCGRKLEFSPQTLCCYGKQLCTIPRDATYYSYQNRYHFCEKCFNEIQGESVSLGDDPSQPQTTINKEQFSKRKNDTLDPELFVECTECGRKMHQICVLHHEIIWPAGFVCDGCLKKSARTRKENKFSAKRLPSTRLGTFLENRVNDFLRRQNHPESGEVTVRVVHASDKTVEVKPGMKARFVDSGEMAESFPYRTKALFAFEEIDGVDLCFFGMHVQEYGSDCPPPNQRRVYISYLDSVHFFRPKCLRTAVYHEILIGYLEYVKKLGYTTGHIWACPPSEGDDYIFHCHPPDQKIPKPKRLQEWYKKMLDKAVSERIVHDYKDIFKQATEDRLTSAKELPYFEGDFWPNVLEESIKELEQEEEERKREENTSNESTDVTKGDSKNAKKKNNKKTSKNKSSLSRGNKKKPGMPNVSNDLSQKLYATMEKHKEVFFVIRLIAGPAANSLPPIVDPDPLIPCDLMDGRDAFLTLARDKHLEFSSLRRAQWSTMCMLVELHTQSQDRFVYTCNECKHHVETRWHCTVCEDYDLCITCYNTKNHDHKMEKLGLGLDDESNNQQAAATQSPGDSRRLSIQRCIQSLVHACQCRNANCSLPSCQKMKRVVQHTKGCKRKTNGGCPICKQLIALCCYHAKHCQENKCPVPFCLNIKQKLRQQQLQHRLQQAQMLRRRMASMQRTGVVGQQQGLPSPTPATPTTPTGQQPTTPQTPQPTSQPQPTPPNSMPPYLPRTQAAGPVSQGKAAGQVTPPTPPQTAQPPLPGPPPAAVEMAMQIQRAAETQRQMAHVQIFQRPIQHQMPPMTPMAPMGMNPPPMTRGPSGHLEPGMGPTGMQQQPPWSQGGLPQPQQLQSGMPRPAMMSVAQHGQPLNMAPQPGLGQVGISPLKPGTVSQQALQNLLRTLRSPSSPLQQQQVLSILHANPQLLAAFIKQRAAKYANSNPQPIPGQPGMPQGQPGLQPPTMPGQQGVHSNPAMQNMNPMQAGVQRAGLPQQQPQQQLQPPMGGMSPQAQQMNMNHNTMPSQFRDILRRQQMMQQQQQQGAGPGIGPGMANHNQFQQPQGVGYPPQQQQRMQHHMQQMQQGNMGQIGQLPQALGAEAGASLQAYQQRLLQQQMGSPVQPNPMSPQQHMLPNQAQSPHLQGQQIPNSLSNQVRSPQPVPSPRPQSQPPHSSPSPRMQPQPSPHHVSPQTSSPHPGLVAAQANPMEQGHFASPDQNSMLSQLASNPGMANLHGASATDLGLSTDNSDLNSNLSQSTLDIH
UniProt P41214: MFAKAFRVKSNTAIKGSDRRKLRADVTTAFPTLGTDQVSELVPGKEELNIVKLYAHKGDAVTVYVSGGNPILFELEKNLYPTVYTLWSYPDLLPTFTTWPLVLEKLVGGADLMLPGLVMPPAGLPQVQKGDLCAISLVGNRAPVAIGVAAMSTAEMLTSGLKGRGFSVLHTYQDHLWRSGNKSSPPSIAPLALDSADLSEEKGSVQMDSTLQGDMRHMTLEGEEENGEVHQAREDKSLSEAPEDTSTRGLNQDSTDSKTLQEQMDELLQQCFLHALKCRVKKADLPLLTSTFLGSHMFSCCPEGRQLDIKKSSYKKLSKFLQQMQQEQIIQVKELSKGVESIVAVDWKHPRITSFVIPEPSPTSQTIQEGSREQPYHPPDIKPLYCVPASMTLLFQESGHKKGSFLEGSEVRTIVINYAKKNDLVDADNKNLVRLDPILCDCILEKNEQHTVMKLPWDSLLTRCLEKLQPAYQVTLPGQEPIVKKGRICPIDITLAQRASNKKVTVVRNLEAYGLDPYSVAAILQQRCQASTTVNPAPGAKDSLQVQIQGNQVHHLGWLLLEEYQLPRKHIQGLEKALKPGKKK
UniProt P54852: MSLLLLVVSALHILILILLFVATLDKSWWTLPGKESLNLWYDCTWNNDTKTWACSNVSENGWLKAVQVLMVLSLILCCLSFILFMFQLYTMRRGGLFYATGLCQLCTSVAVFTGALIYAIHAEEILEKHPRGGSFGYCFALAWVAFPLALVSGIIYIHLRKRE
UniProt P98172: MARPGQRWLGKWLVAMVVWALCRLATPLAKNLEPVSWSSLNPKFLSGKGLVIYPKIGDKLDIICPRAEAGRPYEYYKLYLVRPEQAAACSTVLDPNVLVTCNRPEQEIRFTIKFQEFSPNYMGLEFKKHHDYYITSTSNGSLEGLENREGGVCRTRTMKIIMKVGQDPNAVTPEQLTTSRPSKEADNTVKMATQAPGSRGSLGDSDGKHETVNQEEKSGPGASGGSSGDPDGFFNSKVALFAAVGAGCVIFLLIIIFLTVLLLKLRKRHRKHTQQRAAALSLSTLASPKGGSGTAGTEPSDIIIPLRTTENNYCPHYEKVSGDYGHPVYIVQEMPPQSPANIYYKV

The list shows a part of the results.

Compound in one assay: C#Cc1cccc(Nc2ncnc3cc(OCCOC)c(OCCOC)cc23)c1 [erlotinib]
Briefly: log2 fold change, soluble protein after heating vs DMSO (PISA); higher = thermal stabilisation; K562 cells, 10 uM, 30 min; active = over 0.2 and 3.5 SD of the protein, either way, in both replicates (recomputed). The procedure, abridged:
(§1)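 K562 cells at 2×10^6 cells/mL were treated with 10 μM compound for 30 min. Aliquots were heated for 3 min across 48°C-58°C, pooled, and extracted in PBS with 0.5% NP-40 at 4°C; soluble protein was the supernatant after 21,000xg for 90 min. Soluble protein was quantified by TMTpro 16plex LC-MS/MS with channel sums equalised, and reported as log2 fold change in thermal stability against DMSO controls, with values from duplicates.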
On to EIF3D (UniProt O15371), for which the log2 fold change was inactive: 0.023.

As for ENDOG (UniProt Q14249), the log2 fold change is inactive: 0.087.

As to EIF3G (UniProt O75821), the log2 fold change was inactive: -0.007.

Consider ELP6 (UniProt Q0PNE2), for which the log2 fold change was inactive: -0.005.

Consider ENO2 (UniProt P09104), for which the log2 fold change was inactive: -0.018.

With EIF3E (UniProt P60228), the log2 fold change was inactive: 0.039.

Regarding EHHADH (UniProt Q08426), the log2 fold change is inactive: -0.013.

EP300 (UniProt Q09472): the log2 fold change is inactive: 0.019.

Take EIF2D (UniProt P41214): the log2 fold change was inactive: 0.189.

As to EMP3 (UniProt P54852), the log2 fold change is inactive: -0.06.

Consider EFNB1 (UniProt P98172), for which the log2 fold change was inactive: 0.039.

Compound in the next assay: C/C(=N\NC(=O)C1=CC(=CC=C1)S(=O)(=O)N2CCOCC2)/C3=C(C=CC(=C3)Cl)O
The assay is described as above. The procedure, abridged: as §1
Take EMC7 (UniProt Q9NPA0): the log2 fold change is inactive: 0.032.

For the target EIF2S1 (UniProt P05198), the log2 fold change is inactive: -0.039.

As for EIF3A (UniProt Q14152), the log2 fold change is inactive: 0.129.

Take EIF2B3 (UniProt Q9NR50): the log2 fold change was inactive: 0.054.

ENO3 (UniProt P13929): the log2 fold change is inactive: 0.038.

Turning to EIF3L (UniProt Q9Y262), the log2 fold change is inactive: 0.033.

Take EPB41 (UniProt P11171): the log2 fold change was inactive: 0.054.

As for EIF2B2 (UniProt P49770), the log2 fold change is inactive: 0.018.

On to ENSA isoform 3 (UniProt O43768), for which the log2 fold change was inactive: -0.043.

Regarding ELP2 isoform 6 (UniProt Q6IA86), the log2 fold change is inactive: 0.005.

With EIF1AX (UniProt P47813), the log2 fold change is inactive: 0.012.

Take EMC6 (UniProt Q9BV81): the log2 fold change was inactive: 0.069.

Regarding EIF4B (UniProt P23588), the log2 fold change is inactive: -0.013.

Consider EIF3H (UniProt O15372), for which the log2 fold change is inactive: 0.05.

Turning to EEFSEC (UniProt P57772), the log2 fold change was inactive: -0.066.

With ELP4 (UniProt Q96EB1), the log2 fold change is inactive: -0.073.

Turning to ELMOD2 (UniProt Q8IZ81), the log2 fold change was inactive: 0.054.

Take EML3 isoform 2 (UniProt Q32P44): the log2 fold change was inactive: -0.089.

ELOB (UniProt Q15370): the log2 fold change was inactive: 0.052.

Take EEF2 (UniProt P13639): the log2 fold change was inactive: 0.009.

As to EI24 (UniProt O14681), the log2 fold change is inactive: 0.014.

With EHMT2 (UniProt Q96KQ7), the log2 fold change was inactive: 0.075.

With EIF1 (UniProt P41567), the log2 fold change was inactive: -0.027.

With EIF3D (UniProt O15371), the log2 fold change is inactive: 0.106.

Take ENDOG (UniProt Q14249): the log2 fold change is inactive: 0.023.

For the target EIF3G (UniProt O75821), the log2 fold change was inactive: 0.024.

Take ELP6 (UniProt Q0PNE2): the log2 fold change is inactive: 0.007.

On to ENO2 (UniProt P09104), for which the log2 fold change was inactive: -0.006.

Consider EIF3E (UniProt P60228), for which the log2 fold change is inactive: 0.099.

Regarding EHHADH (UniProt Q08426), the log2 fold change is inactive: -0.005.

Regarding EP300 (UniProt Q09472), the log2 fold change was inactive: 0.017.

Take EIF2D (UniProt P41214): the log2 fold change was inactive: 0.068.

With EMP3 (UniProt P54852), the log2 fold change was inactive: -0.032.

Regarding EFNB1 (UniProt P98172), the log2 fold change is inactive: 0.023.

Compound in another assay: C1=CC(=C(C=C1Cl)C2=NC3=NC=CN=C3C(=N2)NC4=CC=NC=C4)F
Described as above. In short, it runs like this: as §1
With EMC7 (UniProt Q9NPA0), the log2 fold change is inactive: 0.009.

In the case of EIF2S1 (UniProt P05198), the log2 fold change is inactive: -0.141.

On to EIF3A (UniProt Q14152), for which the log2 fold change is inactive: -0.041.

Turning to EIF2B3 (UniProt Q9NR50), the log2 fold change is inactive: -0.025.

As for ENO3 (UniProt P13929), the log2 fold change was inactive: 0.193.

For the target EIF3L (UniProt Q9Y262), the log2 fold change is inactive: 0.172.

EPB41 (UniProt P11171): the log2 fold change was inactive: -0.042.

As for EIF2B2 (UniProt P49770), the log2 fold change was inactive: -0.009.

Regarding ENSA isoform 3 (UniProt O43768), the log2 fold change is inactive: 0.011.

For the target ELP2 isoform 6 (UniProt Q6IA86), the log2 fold change was inactive: 0.064.

Regarding EIF1AX (UniProt P47813), the log2 fold change was inactive: -0.015.

With EMC6 (UniProt Q9BV81), the log2 fold change is inactive: 0.04.

Turning to EIF4B (UniProt P23588), the log2 fold change was inactive: 0.005.

EIF3H (UniProt O15372): the log2 fold change was inactive: -0.04.

With EEFSEC (UniProt P57772), the log2 fold change is inactive: -0.03.

ELP4 (UniProt Q96EB1): the log2 fold change is inactive: -0.034.

For the target ELMOD2 (UniProt Q8IZ81), the log2 fold change was inactive: -0.001.

On to EML3 isoform 2 (UniProt Q32P44), for which the log2 fold change is inactive: -0.251.

Consider ELOB (UniProt Q15370), for which the log2 fold change is inactive: 0.084.

As for EEF2 (UniProt P13639), the log2 fold change was inactive: 0.05.

Take EI24 (UniProt O14681): the log2 fold change is inactive: 0.025.

For EHMT2 (UniProt Q96KQ7), the log2 fold change was inactive: 0.021.

As for EIF1 (UniProt P41567), the log2 fold change was inactive: 0.055.

Regarding EIF3D (UniProt O15371), the log2 fold change is inactive: -0.054.

For the target ENDOG (UniProt Q14249), the log2 fold change is inactive: 0.068.

EIF3G (UniProt O75821): the log2 fold change was inactive: -0.016.

On to ELP6 (UniProt Q0PNE2), for which the log2 fold change was inactive: -0.012.

Regarding ENO2 (UniProt P09104), the log2 fold change was inactive: 0.011.

Take EIF3E (UniProt P60228): the log2 fold change was inactive: -0.033.

Take EHHADH (UniProt Q08426): the log2 fold change is inactive: 0.021.

As to EP300 (UniProt Q09472), the log2 fold change is inactive: 0.001.

Consider EIF2D (UniProt P41214), for which the log2 fold change was inactive: -0.065.

Regarding EMP3 (UniProt P54852), the log2 fold change is inactive: -0.062.

Consider EFNB1 (UniProt P98172), for which the log2 fold change is inactive: 0.113.
